Small-molecule microarray binding calls

From ROBIN, a set of small-molecule microarray screens (doi:10.1002/anie.202211358).

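Each compound is printed as two spots on a slide made to bind it covalently, so it has no test concentration; the read-out is fluorescence of the bound, labelled oligonucleotide. For the PreQ1, TPP and SAM-II riboswitches the laboratory earlier reported (doi:10.1038/s41467-019-09493-3) 1 µM RNA, 2 h, and a rule that included a mean Z-score above 3 (spot signal-to-noise against the whole library), a score well above that on a control array, and duplicate spots agreeing (coefficient of variation under 100). The data file gives only the calls; its cut-offs may differ, and compounds hitting several targets are kept. The calls come from the array alone, and fixing a compound to the slide can hide its binding.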 Key: active = hit, inactive = tested without a hit. The compounds are a random part of those screened. A target missing from an entry has no call listed here. A dash means that no call is listed here.

Oligonucleotides screened, 5′ to 3′:
PreQ1: PreQ1 riboswitch RNA pseudoknot, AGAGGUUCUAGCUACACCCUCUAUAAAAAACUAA. From B. subtilis. About 170 hits among about 24,000 compounds.
TPP: TPP riboswitch RNA three-way junction, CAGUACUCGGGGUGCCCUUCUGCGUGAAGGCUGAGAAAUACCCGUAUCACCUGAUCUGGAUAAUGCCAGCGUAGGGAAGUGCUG. About 160 hits among about 24,000 compounds.
SAM-II: SAM-II riboswitch RNA pseudoknot, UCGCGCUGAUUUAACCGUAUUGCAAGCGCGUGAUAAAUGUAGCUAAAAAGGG. About 200 hits among about 21,000 compounds.

{"compound": "CCNC(=O)[C@@H]1C[C@@H](N)CN1C(=O)CN1CCN(c2cccc(C)c2)CC1", "PreQ1": "inactive", "TPP": "inactive", "SAM-II": "inactive"}
{"compound": "C=CCC(Nc1ccccc1)c1ccco1", "stereo": "centres unmarked", "PreQ1": "inactive", "TPP": "inactive", "SAM-II": "inactive"}
{"compound": "Cn1c(=O)n(CCCO)c(=O)c2c1nc1n2CCCN1CCc1ccccc1", "PreQ1": "inactive", "TPP": "inactive"}
{"compound": "O=C(CCn1cncn1)N1CC[C@@H](c2ccc(F)cc2)[C@H](O)C1", "PreQ1": "inactive", "TPP": "inactive", "SAM-II": "inactive"}
{"compound": "COc1cccc([C@H]2CN(C(=O)c3ccccc3N3CCOCC3)C[C@@H]2N)c1", "PreQ1": "inactive", "TPP": "inactive", "SAM-II": "inactive"}
{"compound": "CCN(CC)CCCNc1cc(-c2ccccc2)nc(C)n1", "PreQ1": "inactive", "TPP": "inactive"}
{"compound": "CCOc1ccc(C(C)NC(=O)c2cn([C@H]3CC[C@@H](N)CC3)nn2)cc1F", "stereo": "some centres unmarked", "PreQ1": "inactive", "TPP": "inactive", "SAM-II": "inactive"}
{"compound": "CC(=O)c1ccc(S(=O)(=O)N2C[C@@H]3CNC[C@]3(C(=O)O)C2)cc1", "PreQ1": "inactive", "TPP": "inactive", "SAM-II": "inactive"}
{"compound": "Cc1cc(NC(=O)c2sc(Nc3ccccc3)nc2N)on1", "PreQ1": "inactive", "TPP": "inactive", "SAM-II": "inactive"}
{"compound": "CC1=CC(=O)CC(C)(C)C1(O)/C=C/C(C)=C/C(=O)O", "stereo": "centres unmarked", "PreQ1": "inactive", "TPP": "inactive", "SAM-II": "inactive"}
{"compound": "N[C@@]1(C(=O)O)CS(=O)(=O)[C@H]2[C@H](C(=O)O)[C@H]21", "PreQ1": "inactive", "TPP": "inactive", "SAM-II": "inactive"}
{"compound": "CNC(=O)[C@@H]1C[C@@H](N)CN1C(=O)c1ccc(-n2cccc2)cc1", "PreQ1": "inactive", "TPP": "inactive", "SAM-II": "inactive"}
{"compound": "CC(=O)c1cc(C#N)c(N)cc1O", "PreQ1": "inactive", "TPP": "inactive", "SAM-II": "inactive"}
{"compound": "COc1cc(C(=O)N2CCNCC2)cc(OC)c1OC", "PreQ1": "inactive", "TPP": "inactive", "SAM-II": "inactive"}
{"compound": "O=S(=O)(c1ccc2ccccc2c1)N(CC(O)COCc1ccco1)c1ccccc1", "stereo": "centres unmarked", "PreQ1": "inactive", "TPP": "inactive", "SAM-II": "inactive"}
{"compound": "Cc1nn(C)c(Cl)c1S(=O)(=O)NC[C@@H]1C[C@H](F)CN1", "PreQ1": "inactive", "TPP": "inactive", "SAM-II": "inactive"}
{"compound": "COc1ccc(Cn2c(C(=O)O)c(CNCCc3ccco3)c3ccccc32)cc1", "PreQ1": "inactive", "TPP": "inactive"}
{"compound": "Cc1ccc2nc(-c3ccc(N)cc3)sc2c1", "PreQ1": "active", "TPP": "inactive", "SAM-II": "active"}
{"compound": "COc1ccc(-c2noc(NCCN3CCN(C)CC3)n2)cc1OC", "PreQ1": "inactive", "TPP": "inactive"}
{"compound": "O=c1cc(CN2CC[C@H](CO)[C@@H](O)C2)[nH]c2c(Cl)cccc12", "PreQ1": "inactive", "TPP": "inactive", "SAM-II": "inactive"}
{"compound": "O=C(O)c1ccc(NCc2nc3ccccc3n2Cc2ccccc2F)cc1", "PreQ1": "inactive", "TPP": "inactive", "SAM-II": "inactive"}
{"compound": "Cc1ccccc1CN(CCO)C(=O)c1cc(C(C)C)nn1C", "PreQ1": "inactive", "TPP": "inactive", "SAM-II": "inactive"}
{"compound": "Cc1ccc(-c2cc(C(=O)N[C@@H]3CNC[C@H]3O)c3ccccc3n2)cc1", "PreQ1": "inactive", "TPP": "inactive", "SAM-II": "active"}
{"compound": "OCCCCn1cc(-c2ccc(-c3nn[nH]n3)cc2)nn1", "PreQ1": "inactive", "TPP": "inactive", "SAM-II": "inactive"}
{"compound": "COCC(C)NCc1noc(Cc2cccs2)n1", "stereo": "centres unmarked", "PreQ1": "inactive", "TPP": "inactive", "SAM-II": "inactive"}
{"compound": "CCOc1ccc(Nc2c(-c3ccc(C)c(C)c3)c(=O)c2=O)cc1", "PreQ1": "inactive", "TPP": "inactive"}
{"compound": "Cc1ccc2nc(NCCCN3CCOCC3)c3nncn3c2c1", "PreQ1": "inactive", "TPP": "inactive"}
{"compound": "O=C1OCC(CO)N1Cc1ccccc1-c1ccccc1", "stereo": "centres unmarked", "PreQ1": "inactive", "TPP": "inactive", "SAM-II": "inactive"}
{"compound": "C=CCn1cc(CNCc2cc(-c3ccc(OC)cc3)on2)c(C)n1", "PreQ1": "inactive", "TPP": "inactive", "SAM-II": "inactive"}
{"compound": "COc1ccc(Nc2nc3ccccc3c3nncn23)c(OC)c1", "PreQ1": "inactive", "TPP": "inactive", "SAM-II": "inactive"}
{"compound": "CC(=O)Nc1ccc(OCC(O)Cn2ccnc2)cc1", "stereo": "centres unmarked", "PreQ1": "inactive", "TPP": "inactive", "SAM-II": "inactive"}
{"compound": "CC1=C(c2ccc(C)c(C)c2)S(=O)(=O)N=C1Nc1ccccc1Cl", "PreQ1": "inactive", "TPP": "inactive"}
{"compound": "O=C(CCN1CCN(CCO)CC1)Nc1ccc2c(c1)OCO2", "PreQ1": "inactive", "TPP": "inactive", "SAM-II": "inactive"}
{"compound": "COC(=O)c1ccc(C2C(C#N)=C(N)OC(C)=C2C(C)=O)cc1", "stereo": "centres unmarked", "PreQ1": "inactive", "TPP": "inactive", "SAM-II": "inactive"}
{"compound": "COC(=O)C1=C(C)OC(N)=C(C#N)C1c1cc(OC)ccc1OC", "stereo": "centres unmarked", "PreQ1": "inactive", "TPP": "inactive", "SAM-II": "inactive"}
{"compound": "Cc1ccc(C)c(N2CCN(C(=O)c3ccc(CNc4c(N5CCCC5)c(=O)c4=O)cc3)CC2)c1", "PreQ1": "inactive", "TPP": "inactive"}
{"compound": "CCOC(=O)N1CCC(Nc2nc3ccccc3c3nnc(C)n23)CC1", "PreQ1": "inactive", "TPP": "inactive", "SAM-II": "inactive"}
{"compound": "CCOc1ccc([C@@H]2C[C@H](c3cccc(OC)c3)n3nc(N)nc3N2)cc1", "PreQ1": "inactive", "TPP": "inactive", "SAM-II": "inactive"}
{"compound": "N=C(Nc1ccc(N)cc1)C(=N)Nc1ccc(N)cc1", "PreQ1": "inactive", "TPP": "inactive", "SAM-II": "inactive"}
{"compound": "O=C1[C@@H]2C[C@H](O)CCN2C(=O)CN1Cc1cccc2[nH]ccc12", "PreQ1": "inactive", "TPP": "inactive", "SAM-II": "inactive"}
{"compound": "CCOC(=O)c1ccc(Nc2nc(-c3ccc(OC)cc3)no2)cc1", "PreQ1": "inactive", "TPP": "inactive"}
{"compound": "Cn1c(=O)c2c(nc(NCCc3ccccc3)n2C)n(C)c1=O", "PreQ1": "inactive", "TPP": "inactive", "SAM-II": "inactive"}

3 of the entries, repeated:

Compound,PreQ1,TPP,SAM-II
COC(=O)C1=C(C)OC(N)=C(C#N)C1c1cc(OC)ccc1OC (centres unmarked),inactive,inactive,inactive
Cn1c(=O)c2c(nc(NCCc3ccccc3)n2C)n(C)c1=O,inactive,inactive,inactive
COc1ccc(-c2noc(NCCN3CCN(C)CC3)n2)cc1OC,inactive,inactive,-